Test results reported in PubChem BioAssay AID540276 (National Center for Advancing Translational Sciences (NCATS), 2011).
Out of some 300,000 compounds screened, about 5,400 (1.8%) were called active. Inconclusive means that the source gave no clear call. Such entries were picked first, then a sample of the others. The call rests on the fitted dose curve; tested in HEK293 cells. Potencies of inconclusive entries are doubtful fits and often do not repeat.

assay: qHTS for inhibitors of binding or entry into cells for Marburg Virus; conditions: Marburg virus pseudotyped entry inhibition, cell reporter; series mostly up to 37.8 µM
Potency means the concentration at half of the fitted maximal effect.

Row | SMILES | Potency
1 | O=C(NC(=S)Nc1ccc2oc(-c3ccncc3)nc2c1)c1ccccc1F | inactive
2 | CC(=O)c1cccc(NC(=O)CN2C(=O)c3cccnc3Oc3ccc(Cl)cc32)c1 | inconclusive: 1.58 µM [inhibitor, single point]
3 | CCCCCCCn1c(NC(=O)CC)nc2ccccc21 | inconclusive: 11.2 µM [inhibitor, partial curve, poor fit]
4 | C/C=C/c1ccc(OCCCNCC(C)O)c(OC)c1 (centres undefined) | inactive
5 | COc1cccc(Nc2nc(-c3ccc4c(c3)OCCO4)cs2)c1 | inconclusive: 3.16 µM [activator, partial curve, poor fit]
6 | Cc1sc(C(=O)NCc2cccnc2)c2nc(C)n(CC(=O)NCc3cccnc3)c(=O)c12 | inconclusive: 29.1 µM [inhibitor, partial curve, poor fit]
7 | CS(=O)(=O)N(CC(=O)Nc1ccc2c(c1)OCO2)c1ccccc1 | inconclusive: 7.3 µM [activator, partial curve, poor fit]
8 | Cn1c(N)c(C(c2ccccc2)c2c(N)n(C)c(=O)n(C)c2=O)c(=O)n(C)c1=O | inactive
9 | CCOC(=O)c1sc2ccccc2c1OC(=O)c1ccc(C)cc1 | inactive
10 | CC1CC(C)CN(CCCNC(=O)C2CCCN(c3ncnc4c3nc3n4CCCCC3)C2)C1 (centres undefined) | inconclusive: 35.5 µM [inhibitor, single point]
11 | C/C(=N\Nc1ccc([N+](=O)[O-])cc1)c1cc2ccccc2o1 | inactive
12 | COC(=O)c1c(NC(=O)CSc2nccn2C)sc(C)c1C | inactive
13 | O=C(COC(=O)C1CC(O)CN1S(=O)(=O)c1ccc(Cl)cc1)c1ccccc1 (centres undefined) | inactive
14 | CC12CCC(C(=O)Nc3cccc(Cl)c3Cl)([C@H](Br)C1=O)C2(C)C (some centres undefined) | inconclusive: 7.94 µM [inhibitor, partial curve]
15 | CC(C1CC2CCC1C2)n1c(-c2cccs2)n[nH]c1=S (centres undefined) | inconclusive: 15.8 µM [inhibitor, single point]
16 | CC(C)c1ccc(C(=O)NCCCNC(=O)c2cnccn2)cc1 | inactive
17 | O=C(Nc1nc(-c2ccc(F)cc2)cs1)c1ccc(N2C(=O)CCC2=O)cc1 | inconclusive: 6.51 µM [inhibitor, single point]
18 | CCN(CC)C(=O)C1CCN(C(=O)c2oc3ccc(C)cc3c2C)CC1 | inactive
19 | CCNc1nc(NCC)n2c(SC(C(=O)Nc3cc(C)ccc3OC)c3ccccc3)nnc2n1 (centres undefined) | inconclusive: 8.91 µM [inhibitor, partial curve, poor fit]
20 | COc1ccc(Nc2nc3c(C)cccc3cc2C#N)c(OC)c1 | inconclusive: 5.62 µM [inhibitor, single point]
21 | O=C(O)c1cccc(Nc2nc(C(F)(F)F)nc3ccccc23)c1 | inconclusive: 15.8 µM [activator, single point]
22 | Cc1cc(N2CCOCC2)nc2ccc(NC(=O)CCC(=O)N3CCN(c4cccc(C(F)(F)F)c4)CC3)cc12 | inconclusive: 15.8 µM [inhibitor, single point]
23 | CCOC(=O)Cn1nc(C)n(-c2ccc(C(C)C)cc2)c1=O | inconclusive: 5.8 µM [inhibitor, single point]

Row | SMILES | Potency
24 | Cc1c(C(=O)NCCSc2ccc(Cl)cc2)cccc1[N+](=O)[O-] | inactive
25 | CC(C)CC(c1nnnn1CC1CCCO1)N1CCN(Cc2ccc3c(c2)OCO3)CC1 (centres undefined) | inconclusive: 17.8 µM [inhibitor, single point]
26 | O=C(NC(=S)Nc1ccccc1C(F)(F)F)c1ccccc1F | inconclusive: 7.94 µM [inhibitor, partial curve]
27 | O=C(C1CCCO1)N1CCN(C(=S)Nc2ccc(Cl)cc2Cl)CC1 (centres undefined) | inconclusive: 6.31 µM [inhibitor, single point]
28 | O=C(NCC1CCCO1)c1ccccc1-c1nc(-c2ccccc2Cl)no1 (centres undefined) | inconclusive: 28.2 µM [inhibitor, partial curve, poor fit]
29 | COc1ccc2c(c1)c(C(=O)CN1CCN(C)CC1)c(C)n2Cc1ccccc1 | active: 20 µM
30 | COc1cccc(NC(=O)Cn2c(=O)n(CC(=O)NCCc3ccccc3)c(=O)c3sccc32)c1 | inactive
31 | Cc1cc(C#N)c(C)c(SCc2[nH]nc3c2C(c2ccccc2)C(C#N)=C(N)O3)n1 (centres undefined) | inconclusive: 18.3 µM [inhibitor, single point]
32 | O=C(N/N=C/c1c[nH]c2ccccc12)c1cc(-c2ccc(-c3ccccc3)cc2)n[nH]1 | inconclusive: 29.1 µM [inhibitor, single point]
33 | CCCCn1c(N)c(N(CC(C)C)C(=O)CCNC(=O)c2ccc(Br)cc2)c(=O)[nH]c1=O | inconclusive: 11.2 µM [inhibitor, partial curve, poor fit]
34 | NC(=O)NC(Cc1ccccc1)C(=O)NCCCSc1ccccc1 (centres undefined) | inconclusive: 35.5 µM [activator, partial curve, poor fit]
35 | Cc1c(Cl)cccc1NC(=O)CSC(C)c1nc2ccccc2c(=O)[nH]1 (centres undefined) | inactive
36 | CC(=O)OCc1c(C(F)(F)F)nn(C)c1Oc1ccccc1 | inactive
37 | Cc1ccc(-c2c3c(=O)n(C)c(=O)n(C)c3cn2-c2cc(C)ccc2O)cc1 | inactive
38 | COc1ccc(C(=O)COc2ccc(F)cc2)c(O)c1C | inconclusive: 4.47 µM [inhibitor, full curve, poor fit]
39 | CCCc1nc(Nc2nc3ccccc3o2)nc(C)c1C(=O)OCC | inactive
40 | COc1ccc2oc(-c3ccc(C)c(NC(=O)CSc4ccc(Cl)cc4)c3)nc2c1 | inactive
41 | Cc1nn(-c2ccccc2)c(N)c1C(c1ccc(C(C)C)cc1)c1c(C)nn(-c2ccccc2)c1N | inconclusive: 8.2 µM [inhibitor, partial curve]
42 | COc1ccccc1N1CC(C(=O)Nc2nnc(SCC(=O)NCC3CCCO3)s2)CC1=O (centres undefined) | inconclusive: 35.5 µM [inhibitor, single point]
43 | Nc1[nH]nc2nc(N3CCOCC3)nc(-c3ccccc3)c12 | inconclusive: 14.6 µM [inhibitor, single point]
44 | COC(=O)C1=C(C)NC(C)=C(C(=O)OC)C1c1ccc2ccccc2n1 | inconclusive: 2.82 µM [activator, partial curve, poor fit]
45 | CC(=O)c1cnc(SCCN2C(=O)c3ccccc3C2=O)nc1C | inconclusive: 0.58 µM [inhibitor, partial curve, poor fit]
46 | CCCOc1ccc(Cc2c(Cl)nc(SC)nc2N(C)C)cc1 | inconclusive: 10 µM [inhibitor, partial curve, poor fit]

Quoted at random: 2 records from the list.
Row | SMILES | Potency
36 | CC(=O)OCc1c(C(F)(F)F)nn(C)c1Oc1ccccc1 | inactive
10 | CC1CC(C)CN(CCCNC(=O)C2CCCN(c3ncnc4c3nc3n4CCCCC3)C2)C1 (centres undefined) | inconclusive: 35.5 µM [inhibitor, single point]

In a second layout: results already given.
CCCCn1c(N)c(N(CC(C)C)C(=O)CCNC(=O)c2ccc(Br)cc2)c(=O)[nH]c1=O
  Potency: inconclusive: 11.2 µM [inhibitor, partial curve, poor fit]
Cc1c(Cl)cccc1NC(=O)CSC(C)c1nc2ccccc2c(=O)[nH]1 (centres undefined)
  Potency: inactive

Remaining list, next part

Row | SMILES | Potency
47 | CC(=O)N(c1nnc(-c2ccc(C)cc2)s1)C1CCCC1 | inconclusive: 12.6 µM [inhibitor, single point]
48 | COC(=O)c1ccc(CNC(=O)COC(=O)c2ccc(N(C)C)cc2)cc1 | inconclusive: 35.5 µM [inhibitor, single point]
49 | Nc1nonc1-n1nnc(C(=O)N/N=C/c2cccc(O)c2)c1CN1CCCC1 | inactive
50 | O=C(CNC(=O)c1cccs1)c1ccc([N+](=O)[O-])cc1 | inconclusive: 6.31 µM [inhibitor, single point]
51 | Cn1c(=O)oc2cc(S(=O)(=O)NC(Cc3ccccc3)C(=O)Nc3ccc(F)c(Cl)c3)ccc21 (centres undefined) | inconclusive: 12.6 µM [inhibitor, single point]
52 | CCCNC(=O)COC(=O)c1ccccc1OCC(=O)Nc1ccc(Br)cc1 | inconclusive: 12.6 µM [activator, single point]
53 | CCn1c(SCC(=O)Nc2ccc(N(C)C)cc2)nnc1C1CC1 | inactive
54 | CN(C)S(=O)(=O)c1ccc(C(=O)OCC(=O)NCc2ccco2)cc1 | inactive
55 | CCOc1ccc(C(=O)Nc2ccc3nc(N(CC)CC)cc(C)c3c2)cc1 | inactive
56 | Cc1ccc(/C=C/C(=O)Nc2ccc3nc(N4CCC(C)CC4)cc(C)c3c2)cc1 | inactive
57 | CC(C(=O)O)c1ccc(N2Cc3ccccc3C2=O)cc1 (centres undefined) | inconclusive: 9.2 µM [inhibitor, partial curve, poor fit]
58 | CCOC(=O)c1c(-c2ccc(C)cc2)csc1NC(=O)CCN1CCOCC1 | inconclusive: 17.8 µM [inhibitor, single point]
59 | O=C(NC1=NCCS1)c1cccc(Br)c1 | inconclusive: 11.2 µM [inhibitor, single point]
60 | Cc1cc(-c2csc(N)n2)c(C)n1CCC(C)C | inactive
61 | CC1(C)CC(=O)C2=C(C1)N1C(=C(C#N)C2c2ccc(Cl)cc2)N=C(N)c2ccccc21 (centres undefined) | inconclusive: 10.3 µM [inhibitor, partial curve, poor fit]
62 | CCOc1ccc(NC(=O)Cc2ccccc2)c([N+](=O)[O-])c1 | inconclusive: 7.94 µM [activator, partial curve]
63 | Cc1cc2oc(=O)cc(CSc3nc(N)cc(N)n3)c2cc1C | inconclusive: 35.5 µM [inhibitor, partial curve, poor fit]
64 | O=C1C[C@@H](c2ccccc2)[C@H](c2ccc(Br)cc2)O1 | inactive
65 | CC(C)c1ccc(NC(=O)Cn2nnc(C(=O)NCc3ccc4c(c3)OCO4)c2N)cc1 | inconclusive: 25.1 µM [inhibitor, single point]
66 | S=c1nc2ccccc2c2nc(-c3ccccc3Br)[nH]n12 | inactive
67 | O=C1c2ccccc2C(=O)C1c1ccccc1F | inconclusive: 1.26 µM [inhibitor, single point]
68 | CCC(C)c1ccccc1NC(=O)c1cccc(-n2cnnn2)c1 (centres undefined) | inconclusive: 35.5 µM [inhibitor, single point]
69 | O=C(CSC1c2ccccc2-c2ccccc21)N/N=C/c1ccccc1 | inconclusive: 29.1 µM [inhibitor, single point]
